## Library screen at single concentrations

Source: ChEMBL document CHEMBL3988442, “University of Dundee, Small-Polar-MMV Screening Library” (2021).

A: 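Whole-cell growth test on Mycobacterium tuberculosis, read after 4 days in a medium based on cholesterol and the lipid DPPC; the read-out is not stated. Compounds at 50 µM. Direction is inferred from retests: higher values go with more growth inhibition. Size under these conditions: about 69,000 compounds, about 370 of them at 50% or above in at least one test.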
B: 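Growth of Mycobacterium tuberculosis over 3 days (7H9 medium with glucose and tyloxapol); the read-out is not stated. Compounds at 50 µM. Direction is inferred from retests: higher values go with more growth inhibition. About 69,000 compounds were tested under these conditions; 1.1% (about 760) showed 50% or more at least once.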

Values are the deposited “Percent Effect”, in %.
The record does not define 0% and 100%; most values in the screen are far below 50% and negative numbers occur (in some assays of this library far below -100).
This is an unselected part of the compounds tested.
Two or more numbers in one place are separate tests of the same structure; such repeats can differ widely.

| compound | A | B |
|---|---|---|
| `COc1ccc(COCC(O)CNC(=O)c2ccc(C)c(F)c2)cc1` (stereo unspecified) | -11.08 | 9.321 |
| `O=C1CCC(=O)N1c1nn(Cc2ccccc2Cl)cc1Cl` | -6.921 | -15.22 |
| `O=C(O)C(F)(F)F.[H][C@@]12COC[C@]1(CNC(=O)CC1CC1)CN(c1ncc(F)cn1)C2` | -3.954 | -15.33 |
| `CCc1cc(=O)[nH]c(-c2ccc(NC(CO)CC(C)C)nc2)n1` (stereo unspecified) | 13.34 | 14.58 |
| `COc1ccc(OC2CCN(C(=O)CCc3n[nH]c(C)n3)CC2)cc1` | 3.136 | 5.156 |
| `O=C1C(N2CC[C@@H](O)C2)CCCN1Cc1cccc(C(F)(F)F)c1` (stereo partly specified) | -1.472 | 1.728 |
| `Cn1cc(C(=O)N2CCN(c3ccccc3)CC2)ccc1=O` | -13.32 | -21.08 |
| `c1ccc(CCN2CCCC2c2ccnc(Nc3ncccn3)n2)cc1` (stereo unspecified) | -4.455 | -18.41 |
| `CCC(=O)N1CCC2(CC1)C(c1cccnc1)CC(=O)N2CCOC.O=C(O)C(F)(F)F` (stereo unspecified) | 5.112 | -7.483 |
| `O=C(O)C(F)(F)F.O=C(O)C(F)(F)F.[H][C@]12CCC[C@@]1(COCC1CCOCC1)CN(Cc1ccccn1)C2` | 2.198 | -23.16 and -6.519 |
| `[H][C@@]12C[C@@H](Oc3cccnc3)CN1CCN(C(=O)c1cccn1C)C2` | 52.39 | -4.442 |
| `O=C(c1ccc(O)nc1)N1CCN(C(=O)c2ccc(F)cc2F)CC1` | 1.684 | -10.67 and -1.983 |
| `Cc1cnc(N2CCN(C)c3ncccc3C2)nc1.O=C(O)C(F)(F)F` | 3.547 | -3.726 and -32.17 |
| `O=C(C1CC1)N1CCC2(CCN(Cc3cccc(F)c3)CC2)CC1.O=C(O)C(F)(F)F` | -11.85 | -6.424 and -23.65 |
| `CN(C)CC1CN(Cc2nc(-c3ccccn3)no2)CCO1` (stereo unspecified) | -2.184 | -76.6 and -6.407 |
| `Cc1c[nH]nc1C1CCN(C(=O)C2CCOCC2)C1` (stereo unspecified) | 22.09 | -4.298 |
| `O=S(=O)(Nc1cnc(N2CCOCC2)nc1)c1ccc(C(F)(F)F)cc1` | -0.535 | -48.1 |
| `COCCN1CCC2(CC1)CN(C(=O)N(C)C)c1ccc(C)cc12.O=C(O)C(F)(F)F` | -8.223 | -10.31 |
| `O=C(O)C(F)(F)F.[H][C@@]12CCCO[C@]1([H])[C@@H](OCC1CC1)CN2S(=O)(=O)c1cn(C)cn1` | 16.42 | 27.73 |
| `CS(=O)(=O)Nc1cccc(CNC(=O)CCC(=O)c2cccs2)c1` | -13.51 | 5.488 |
| `O=C(O)C(F)(F)F.O=C(O)C(F)(F)F.[H][C@@]12CN(Cc3cccnc3)CCO[C@]1([H])CN(C(C)=O)C2` | -14.92 | -23.5 |
| `O=C(NCCCOCC1CC1)Nc1ccc(-n2cncn2)c(F)c1` | 2.029 | 23.99 |
| `Nc1nc(O)cc(N2CCC(c3cc(Cc4ccccc4)n[nH]3)CC2)n1` | 3.846 | 12.9 |
| `COc1cccc(C(=O)N2C[C@@H](CN(C)CCO)[C@@H](CO)C2)c1C` | -3.527 and -12.4 | -6.488 |
| `Cc1ncoc1C(=O)N1CCn2c(COc3cccnc3)cnc2C1C` (stereo unspecified) | -16.28 | -43.37 |
| `CCN(CC)C(=O)c1ccn(COc2ccc(F)cc2)n1` | -2.288 | 4.191 |
| `O=C(CC1CCCO1)NCCCC(=O)Nc1ccc(Cl)cc1` (stereo unspecified) | -5.751 | 2.802 |
| `Cc1cnn(CCNCc2ccc(C#N)cc2)c1` | 8.666 | -4.047 |
| `COc1cc(C)sc1C(=O)NCCC(=O)N(C)Cc1ccccc1` | -18.13 | 4.274 and 2.304 |
| `O=C(c1cccnc1)N1CCCC(Cc2nccs2)C1` (stereo unspecified) | -17.73 | -11.51 |
| `Cc1ccc(-c2nc3c([nH]2)CCNC3C(=O)O)c2cccnc12` (stereo unspecified) | 15.42 and -0.7941 | 2.996 |
| `[H][C@@]12C[C@@H](c3nnc(C)[nH]3)O[C@]1([H])CN(C(=O)C1CC1)C2` | 6.735 | 0.9973 and -3.434 |
| `FC(F)c1nnc2ccc(N3CCC4(CCOC4)C3)nn12` (stereo unspecified) | -1.334 | -3.31 and -2.895 |
| `[H][C@]12CC[C@]([H])(CN(C(=O)CCc3nc(Cl)n[nH]3)C1)N(CC=C(C)C)C2=O` | -13.28 | -4.535 |
| `CN(Cc1ccccc1)C(=O)Cn1nc(N2CCSCC2)ccc1=O` | 18.54 | 4.873 and -3.653 |
| `COc1c(CNCc2cccnc2OC2CCCC2)c(C)nn1C` | -4.43 and -2.856 | 3.461 and -2.764 |
| `CC1CCN(CCNC(=O)C2CCN(C(=O)C(C)(C)C)CC2)CC1` | 7.325 | 15.78 and 2.14 |
| `CCc1noc(CN2CCN(C(=O)N(C)C)CC2)n1` | -7.832 | -15.65 |
| `Cc1n[nH]c(C)c1CNc1ccc(-c2nc(C3CC3)no2)cn1` | 11.06 | 23.12 and 47.08 |
| `Cn1ccc2c(C(=O)NCCCN3CCOCC3)cccc21` | 8.533 | -14.95 |
| `CCNc1nc(C)c(C(=O)N(C)Cc2noc(C)n2)s1` | -17.19 | -47.33 |
| `CC(=O)N1CCCN(C(=O)c2ccc(=O)n(C)c2)c2ccccc21` | 4.204 | -3.036 and -65.12 |
| `CC1CCc2nc(NC(=O)CN(C)C(=O)c3ccco3)sc2C1` (stereo unspecified) | -15.37 | -14.94 |
| `Cc1ccc(N2CCC(NCc3cnc(C4CCC4)s3)CC2)nc1` | -4.808 | 5.383 and 9.615 |
| `Cc1cccc(NC2CCN(C(=O)Nc3ccccn3)CC2)n1` | -16.73 | 2.548 and -2.886 |
| `O=C(Nc1cc(C(F)(F)F)c[nH]c1=O)C1CCNCC1` | -1.823 | 1.251 |
| `CC1CN(C)c2ccccc2CN1C(=O)c1ccncc1` (stereo unspecified) | -11.61 | 7.352 and -3.497 |
| `CCOCC1CN(Cc2cccc(C#N)c2)Cc2nccn2C1.O=C(O)C(F)(F)F` (stereo unspecified) | -13.66 | -23.35 |
| `CC(NC(=O)N1CCC2(C1)OCCO2)c1ccc(F)cc1Cl` (stereo unspecified) | 22.7 | 24.12 |
| `O=C(NCCC1=CCCCC1)c1ccc(-n2cccc2)nc1` | -12.03 | -17.68 |
| `Cc1occc1C(=O)N1CCn2c(Cn3cncn3)cnc2C1C` (stereo unspecified) | -34.03 | -86.06 |
| `Cc1cccc(S(=O)(=O)NC(=O)CCc2cscn2)c1` | 3.121 | -5.571 |
| `Cc1ccc(C(O)CNCc2c(C(C)C)nn(C)c2N(C)C)cc1` (stereo unspecified) | -1.895 | 8.504 |
| `CCCN1CCCn2nc(CNC(=O)CCOC)cc2C1` | -2.905 and -27.82 | -0.8023 and 4.102 |
| `CS(=O)(=O)N1CCc2sc(C(=O)NCc3ccccc3)cc21` | -13.1 | 32.01 |
| `CCCn1nc2c(cc1=O)CN(CC(=O)N(C)c1nccs1)CC2` | 13.37 | 5.061 and -5.325 |
| `CCc1nc(C)c(-c2nccn2CC2CCN(C3CCCC3)CC2)[nH]1` | 0.7563 | 33.53 |
| `Cn1ccc(C(=O)NCC2(O)CCN(c3cnccn3)C2)n1` (stereo unspecified) | -4.101 and -17.92 | -18.59 |
| `COCc1cc(O)nc(C2CCCN(Cc3cccc(OC)c3)C2)n1` (stereo unspecified) | 14.54 | -12.34 |
| `O=C(O)C(F)(F)F.[H][C@]12CCC[C@@H](CNc3nccn3C)[C@@]1([H])CN(Cc1nccs1)C2` | 4.192 | -0.265 and 3.378 |
| `CC(C)CNC(=O)CNc1c(NCc2ccncc2)c(=O)c1=O` | -2.7 | 6.698 |
| `CN(C)c1cccc(C(=O)N2CCC(c3n[nH]c(C4CC4)n3)CC2)c1` | -17.19 | 21.74 |
| `C[C@@H]1CN(C(=O)c2ccc(Br)cc2F)CC(C(N)=O)O1` (stereo partly specified) | -14.33 | -6.965 |
| `O=C(Cc1ccccn1)N1CCC(O)(Cn2ccc3ccncc32)CC1` | -6.817 | 7.519 |
| `[H][C@@]12CCCCCN(C(=O)CC)[C@@]1([H])[C@H](c1cccc(F)c1)CN2C` | -13.34 and -10.29 | -46.21 |
| `CC[C@@H]1N(CC2CC2)CCC[C@]12CCC(=O)N2.O=C(O)C(F)(F)F` | 9.589 | -7.174 and -17.19 |
| `Cc1[nH]ncc1CCCNC(=O)Nc1ccc(F)cc1` | -16.09 | -0.3389 and -2.888 |
| `Cc1cccc(-c2c[nH]c(C3CCCN3C(=O)Cn3cc(C)cn3)n2)c1` (stereo unspecified) | -0.1779 | 15.52 and 8.21 |
| `Cc1ncnc(N2CCN(C(=O)C3CC4(CCNCC4)CN3)CC2)c1C` (stereo unspecified) | -3.637 | -21.54 |
| `Cc1cccc2c1cnn2CCC(=O)NCc1csc(C2CC2)n1` | -9.716 | 16.67 and 15.32 |
| `Cc1ccc(N2CCCN(C(=O)c3cc(CC(C)C)n[nH]3)CC2)nn1` | -1.511 | -20.88 |
| `O=C(c1ccc(-n2cccn2)nc1)N1CCCC(n2cccn2)C1` (stereo unspecified) | 2.928 | 9.808 |
| `CCS(=O)(=O)NCC1OCCc2cn(CC3CCOCC3)nc21` (stereo unspecified) | -5.149 | 3.904 |

The last 5 entries again:

| compound | A | B |
|---|---|---|
| `Cc1ncnc(N2CCN(C(=O)C3CC4(CCNCC4)CN3)CC2)c1C` (stereo unspecified) | -3.637 | -21.54 |
| `Cc1cccc2c1cnn2CCC(=O)NCc1csc(C2CC2)n1` | -9.716 | 16.67 and 15.32 |
| `Cc1ccc(N2CCCN(C(=O)c3cc(CC(C)C)n[nH]3)CC2)nn1` | -1.511 | -20.88 |
| `O=C(c1ccc(-n2cccn2)nc1)N1CCCC(n2cccn2)C1` (stereo unspecified) | 2.928 | 9.808 |
| `CCS(=O)(=O)NCC1OCCc2cn(CC3CCOCC3)nc21` (stereo unspecified) | -5.149 | 3.904 |